{"source": "PubChem BioAssay AID504786 (Drosophila RNAi Screening Center, 2011)", "screen": "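Fly genes required for HIF-dependent transcription when hypoxia is mimicked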 (primary screen)", "system": "Drosophila S2 cells with a stable HIF luciferase reporter", "reagents": "long dsRNA against Drosophila genes, about 0.2 µg dsRNA per well of a 384-well plate", "timing": "three days of knock-down, then 20 h of DFO before reading", "conditions": "desferrioxamine (DFO) at 100 µM, an iron chelator that mimics hypoxia, for 20 h", "read-out": "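Firefly luciferase driven by the mouse ldh-a hypoxia-response element, measured after 20 h of 100 µM DFO; z-scores per plate, higher means more signal lost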", "scale": "z-score: higher = stronger loss of HIF reporter signal", "note": "The deposit covers about 21,000 reagents; shown is a random part of those with a known target gene and a result. 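Primary screen; positive scores mean lost reporter signal, so the sign may be inverted from the usual convention.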 The numbers tell different reagents against one gene apart. A plus sign joins genes that one reagent is predicted to hit. Further read-outs or replicates are left out here."}
{"Target gene": "CG12341 (GeneID 36137)", "reagent": 1, "z-score, replicate 1": -0.1}
{"Target gene": "CG12025 (GeneID 38246)", "reagent": 1, "z-score, replicate 1": -0.3}
{"Target gene": "CG11019 (retired record) (GeneID 50472)", "reagent": 1, "z-score, replicate 1": 0.3}
{"Target gene": "CG4783 (GeneID 42381)", "reagent": 1, "z-score, replicate 1": -0.4}
{"Target gene": "mTerf5 (GeneID 42182)", "reagent": 1, "z-score, replicate 1": -0.2}
{"Target gene": "CG7384 (GeneID 34447)", "reagent": 1, "z-score, replicate 1": -0.3}
{"Target gene": "Ypel (GeneID 31949)", "reagent": 1, "z-score, replicate 1": -0.2}
{"Target gene": "a5 (GeneID 33317)", "reagent": 1, "z-score, replicate 1": -0.2}
{"Target gene": "Npc2a (GeneID 33374)", "reagent": 1, "z-score, replicate 1": 0.1}
{"Target gene": "CG33330 (retired record) (GeneID 2768667)", "reagent": 1, "z-score, replicate 1": 2.9}
{"Target gene": "CG33330 (retired record) (GeneID 2768667)", "reagent": 2, "z-score, replicate 1": -0.3}
{"Target gene": "mRpL45 (GeneID 42671)", "reagent": 1, "z-score, replicate 1": 2.4}
{"Target gene": "Rh4 + sina", "reagent": 1, "z-score, replicate 1": -0.3}
{"Target gene": "shot (GeneID 36542)", "reagent": 1, "z-score, replicate 1": -0.3}
{"Target gene": "shot (GeneID 36542)", "reagent": 2, "z-score, replicate 1": -0.1}
{"Target gene": "shot (GeneID 36542)", "reagent": 3, "z-score, replicate 1": -0.3}
{"Target gene": "PXo (GeneID 38666)", "reagent": 1, "z-score, replicate 1": -0.3}
{"Target gene": "Myo31DF (GeneID 34445)", "reagent": 1, "z-score, replicate 1": -0.4}
{"Target gene": "CG7173 (GeneID 40392)", "reagent": 1, "z-score, replicate 1": 0.2}
{"Target gene": "Reepl1 (GeneID 32103)", "reagent": 1, "z-score, replicate 1": -0.3}
{"Target gene": "CG14195 (GeneID 32911)", "reagent": 1, "z-score, replicate 1": -0.3}
{"Target gene": "Obp44a (GeneID 35789)", "reagent": 1, "z-score, replicate 1": -0.3}
{"Target gene": "RpL7A (GeneID 31588)", "reagent": 1, "z-score, replicate 1": 6.5}
{"Target gene": "Tbc1d8-9 (GeneID 40361)", "reagent": 1, "z-score, replicate 1": 0.1}
{"Target gene": "slam (GeneID 33890)", "reagent": 1, "z-score, replicate 1": 0.2}
{"Target gene": "CG30416 (GeneID 246603)", "reagent": 1, "z-score, replicate 1": -0.3}

Continued, starting with the last 5 of the part before.
{"Target gene": "Obp44a (GeneID 35789)", "reagent": 1, "z-score, replicate 1": -0.3}
{"Target gene": "RpL7A (GeneID 31588)", "reagent": 1, "z-score, replicate 1": 6.5}
{"Target gene": "Tbc1d8-9 (GeneID 40361)", "reagent": 1, "z-score, replicate 1": 0.1}
{"Target gene": "slam (GeneID 33890)", "reagent": 1, "z-score, replicate 1": 0.2}
{"Target gene": "CG30416 (GeneID 246603)", "reagent": 1, "z-score, replicate 1": -0.3}
{"Target gene": "CG8785 (GeneID 36391)", "reagent": 1, "z-score, replicate 1": -0.4}
{"Target gene": "fs(1)h (GeneID 31722)", "reagent": 1, "z-score, replicate 1": -0.4}
{"Target gene": "CG1647 (GeneID 43401)", "reagent": 1, "z-score, replicate 1": -0.3}
{"Target gene": "CG9795 (GeneID 40545)", "reagent": 1, "z-score, replicate 1": -0.1}
{"Target gene": "Ets97D (GeneID 43236)", "reagent": 1, "z-score, replicate 1": -0.1}
{"Target gene": "Neb-cGP (GeneID 50417)", "reagent": 1, "z-score, replicate 1": -0.2}
{"Target gene": "CG4596 (GeneID 41312)", "reagent": 1, "z-score, replicate 1": -0.2}
{"Target gene": "Cyp6a17 (GeneID 45556)", "reagent": 1, "z-score, replicate 1": -0.1}
{"Target gene": "CG31064 (GeneID 43277)", "reagent": 1, "z-score, replicate 1": 0.2}
{"Target gene": "CG31064 (GeneID 43277)", "reagent": 2, "z-score, replicate 1": -0.2}
{"Target gene": "CG31064 (GeneID 43277)", "reagent": 3, "z-score, replicate 1": -0.5}
{"Target gene": "CG31064 (GeneID 43277)", "reagent": 4, "z-score, replicate 1": -0.3}
{"Target gene": "CG12268 (GeneID 42833)", "reagent": 1, "z-score, replicate 1": -0.1}
{"Target gene": "Gem4b + Gem4c + Glos", "reagent": 1, "z-score, replicate 1": -0.3}
